According to the supplement of paper PMC10849652:
Some of the results follow.

The chains behind the UniProt entries cited, without tags or fusion partners. Where a name states a change or a piece, a line headed by the entry shows the natural chain unless it says otherwise.
UniProt Q2M2Z5: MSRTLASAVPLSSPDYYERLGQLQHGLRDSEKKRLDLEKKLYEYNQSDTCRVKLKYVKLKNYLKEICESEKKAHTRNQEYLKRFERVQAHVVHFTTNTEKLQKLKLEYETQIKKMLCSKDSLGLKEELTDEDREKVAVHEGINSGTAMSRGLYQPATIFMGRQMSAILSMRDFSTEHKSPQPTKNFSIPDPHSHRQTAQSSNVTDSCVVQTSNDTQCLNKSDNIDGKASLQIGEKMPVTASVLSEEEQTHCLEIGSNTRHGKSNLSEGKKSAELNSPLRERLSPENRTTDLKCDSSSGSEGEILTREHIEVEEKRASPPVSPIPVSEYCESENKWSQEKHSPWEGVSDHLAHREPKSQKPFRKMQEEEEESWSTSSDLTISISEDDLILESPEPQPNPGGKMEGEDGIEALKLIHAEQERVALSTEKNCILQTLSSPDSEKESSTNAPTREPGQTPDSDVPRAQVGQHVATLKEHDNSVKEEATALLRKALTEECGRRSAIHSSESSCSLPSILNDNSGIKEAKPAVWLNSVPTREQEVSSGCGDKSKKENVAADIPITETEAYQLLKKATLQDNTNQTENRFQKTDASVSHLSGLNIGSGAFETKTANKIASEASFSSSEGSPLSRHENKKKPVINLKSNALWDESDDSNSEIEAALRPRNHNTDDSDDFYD
UniProt O60333: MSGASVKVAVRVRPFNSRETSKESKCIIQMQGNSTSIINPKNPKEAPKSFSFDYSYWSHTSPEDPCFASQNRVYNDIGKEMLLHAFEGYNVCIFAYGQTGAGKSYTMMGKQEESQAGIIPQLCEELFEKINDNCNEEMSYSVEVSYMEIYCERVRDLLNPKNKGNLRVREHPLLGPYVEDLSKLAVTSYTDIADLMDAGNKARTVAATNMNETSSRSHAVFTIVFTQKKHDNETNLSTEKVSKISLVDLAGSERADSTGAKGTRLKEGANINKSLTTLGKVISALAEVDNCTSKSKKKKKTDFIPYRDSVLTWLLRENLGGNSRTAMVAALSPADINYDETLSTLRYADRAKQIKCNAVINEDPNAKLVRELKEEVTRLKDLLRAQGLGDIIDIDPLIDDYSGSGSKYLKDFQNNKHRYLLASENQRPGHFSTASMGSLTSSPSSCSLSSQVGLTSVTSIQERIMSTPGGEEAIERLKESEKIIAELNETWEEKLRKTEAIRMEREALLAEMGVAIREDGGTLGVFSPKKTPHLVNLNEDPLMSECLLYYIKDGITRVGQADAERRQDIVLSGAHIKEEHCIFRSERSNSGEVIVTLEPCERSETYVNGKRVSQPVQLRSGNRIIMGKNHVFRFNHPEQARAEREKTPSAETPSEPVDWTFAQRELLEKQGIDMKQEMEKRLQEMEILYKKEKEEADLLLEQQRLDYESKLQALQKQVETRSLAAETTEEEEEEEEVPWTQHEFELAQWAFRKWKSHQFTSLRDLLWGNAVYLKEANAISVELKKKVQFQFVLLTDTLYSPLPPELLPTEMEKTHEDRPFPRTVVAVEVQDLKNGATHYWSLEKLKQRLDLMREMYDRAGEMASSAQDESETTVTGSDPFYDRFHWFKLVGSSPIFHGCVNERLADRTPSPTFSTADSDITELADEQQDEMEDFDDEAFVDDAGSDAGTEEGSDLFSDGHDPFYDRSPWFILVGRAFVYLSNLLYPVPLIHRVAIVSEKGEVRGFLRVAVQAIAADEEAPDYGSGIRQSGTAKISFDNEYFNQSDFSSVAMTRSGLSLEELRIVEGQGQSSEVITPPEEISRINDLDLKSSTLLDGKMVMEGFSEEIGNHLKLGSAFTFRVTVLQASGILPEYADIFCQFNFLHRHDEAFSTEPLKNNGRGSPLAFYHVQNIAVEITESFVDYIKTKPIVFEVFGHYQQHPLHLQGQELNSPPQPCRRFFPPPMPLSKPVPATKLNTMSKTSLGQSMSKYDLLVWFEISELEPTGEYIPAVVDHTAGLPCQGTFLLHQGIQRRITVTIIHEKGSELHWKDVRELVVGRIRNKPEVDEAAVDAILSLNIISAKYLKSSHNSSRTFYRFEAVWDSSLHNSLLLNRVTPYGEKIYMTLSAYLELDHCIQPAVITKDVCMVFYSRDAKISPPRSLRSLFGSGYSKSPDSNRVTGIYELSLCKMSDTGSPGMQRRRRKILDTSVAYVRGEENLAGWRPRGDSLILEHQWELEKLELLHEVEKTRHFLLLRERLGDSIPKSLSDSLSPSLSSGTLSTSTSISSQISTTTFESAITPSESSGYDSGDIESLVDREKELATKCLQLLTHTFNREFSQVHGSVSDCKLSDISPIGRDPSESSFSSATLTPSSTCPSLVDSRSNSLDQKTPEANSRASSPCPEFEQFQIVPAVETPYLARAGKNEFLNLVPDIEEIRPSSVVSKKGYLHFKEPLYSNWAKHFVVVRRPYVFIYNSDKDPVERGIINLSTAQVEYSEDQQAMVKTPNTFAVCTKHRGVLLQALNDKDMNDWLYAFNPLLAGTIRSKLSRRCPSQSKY
UniProt Q96Q89: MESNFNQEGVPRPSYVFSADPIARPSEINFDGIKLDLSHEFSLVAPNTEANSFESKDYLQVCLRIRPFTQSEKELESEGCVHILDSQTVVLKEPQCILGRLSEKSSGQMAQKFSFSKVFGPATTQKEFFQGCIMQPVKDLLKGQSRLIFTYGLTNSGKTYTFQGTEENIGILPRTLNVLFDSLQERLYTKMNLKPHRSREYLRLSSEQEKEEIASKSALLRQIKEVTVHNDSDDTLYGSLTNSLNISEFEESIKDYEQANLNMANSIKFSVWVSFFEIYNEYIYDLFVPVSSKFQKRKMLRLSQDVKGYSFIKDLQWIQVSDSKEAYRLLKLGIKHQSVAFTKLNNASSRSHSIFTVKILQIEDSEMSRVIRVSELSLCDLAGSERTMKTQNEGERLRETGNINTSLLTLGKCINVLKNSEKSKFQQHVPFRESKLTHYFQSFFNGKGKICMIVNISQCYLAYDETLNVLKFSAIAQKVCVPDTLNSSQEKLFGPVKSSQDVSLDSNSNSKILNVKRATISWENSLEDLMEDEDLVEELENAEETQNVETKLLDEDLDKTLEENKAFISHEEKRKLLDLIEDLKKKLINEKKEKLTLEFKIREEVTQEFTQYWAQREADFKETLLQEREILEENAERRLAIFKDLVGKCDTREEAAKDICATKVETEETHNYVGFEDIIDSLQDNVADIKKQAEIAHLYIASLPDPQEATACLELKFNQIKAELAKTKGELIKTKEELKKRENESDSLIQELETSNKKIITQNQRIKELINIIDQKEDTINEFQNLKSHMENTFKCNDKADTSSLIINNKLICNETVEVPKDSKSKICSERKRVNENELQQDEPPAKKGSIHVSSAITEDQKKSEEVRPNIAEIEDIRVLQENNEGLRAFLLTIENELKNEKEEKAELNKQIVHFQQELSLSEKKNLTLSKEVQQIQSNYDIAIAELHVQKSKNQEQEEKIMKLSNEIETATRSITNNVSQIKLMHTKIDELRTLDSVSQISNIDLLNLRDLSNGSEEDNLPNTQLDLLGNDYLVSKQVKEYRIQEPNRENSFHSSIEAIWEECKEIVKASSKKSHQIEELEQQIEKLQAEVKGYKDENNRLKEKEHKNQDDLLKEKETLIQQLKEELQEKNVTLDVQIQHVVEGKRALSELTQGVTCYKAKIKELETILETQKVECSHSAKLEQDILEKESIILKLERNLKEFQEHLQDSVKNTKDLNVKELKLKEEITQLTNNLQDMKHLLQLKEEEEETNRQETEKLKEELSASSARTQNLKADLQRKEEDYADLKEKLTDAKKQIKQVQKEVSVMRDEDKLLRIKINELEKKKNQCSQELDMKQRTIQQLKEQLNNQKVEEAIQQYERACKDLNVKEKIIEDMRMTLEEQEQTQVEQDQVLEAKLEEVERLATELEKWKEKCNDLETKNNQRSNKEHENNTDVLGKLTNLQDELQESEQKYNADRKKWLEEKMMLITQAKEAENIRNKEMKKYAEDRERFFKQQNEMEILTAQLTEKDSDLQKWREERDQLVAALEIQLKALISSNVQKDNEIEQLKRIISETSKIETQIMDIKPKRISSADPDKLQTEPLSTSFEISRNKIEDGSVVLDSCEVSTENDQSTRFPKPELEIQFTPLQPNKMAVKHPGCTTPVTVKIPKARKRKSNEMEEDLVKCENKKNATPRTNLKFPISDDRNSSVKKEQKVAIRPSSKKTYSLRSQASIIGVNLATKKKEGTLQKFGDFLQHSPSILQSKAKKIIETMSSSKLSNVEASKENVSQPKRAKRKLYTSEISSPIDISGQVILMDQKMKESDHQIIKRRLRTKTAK
UniProt Q9Y2M5: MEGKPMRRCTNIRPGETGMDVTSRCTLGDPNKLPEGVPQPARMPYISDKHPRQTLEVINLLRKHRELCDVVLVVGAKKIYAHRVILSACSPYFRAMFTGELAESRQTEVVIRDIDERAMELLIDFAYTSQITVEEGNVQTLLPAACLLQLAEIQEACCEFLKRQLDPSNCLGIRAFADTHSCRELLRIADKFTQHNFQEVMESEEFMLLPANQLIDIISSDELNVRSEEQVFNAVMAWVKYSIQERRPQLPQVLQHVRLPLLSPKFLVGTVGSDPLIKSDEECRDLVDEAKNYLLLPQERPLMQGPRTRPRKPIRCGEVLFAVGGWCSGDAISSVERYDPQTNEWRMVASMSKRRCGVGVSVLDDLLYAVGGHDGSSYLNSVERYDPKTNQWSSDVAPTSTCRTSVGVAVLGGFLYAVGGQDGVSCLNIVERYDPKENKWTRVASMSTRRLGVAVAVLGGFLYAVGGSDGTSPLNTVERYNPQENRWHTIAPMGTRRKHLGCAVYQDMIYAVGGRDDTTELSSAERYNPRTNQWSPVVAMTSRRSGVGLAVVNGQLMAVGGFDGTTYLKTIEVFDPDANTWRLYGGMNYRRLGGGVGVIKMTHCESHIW

What was measured:
Test in all cases: log2 fold change, soluble protein after heating vs DMSO (PISA); higher = thermal stabilisation; K562 lysate, 10 uM; active = over 0.2 and 3.5 SD of the protein, either way, in both replicates (recomputed)
[1] = compound: C#Cc1cccc(Nc2ncnc3cc(OCCOC)c(OCCOC)cc23)c1 [erlotinib]
In short: (§1)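 Dounce homogenisation of K562 pellets in PBS pH 7.4 with 1 mM MgCl2 produced a crude extract, used at 1 mg/mL protein. Exposure to 10 μM compound lasted 30 min, and aliquots were then heated for 3 min across 48°C-58°C, pooled and brought to 0.5% NP-40 at 4°C. The supernatant after 21,000xg for 90 min was quantified by TMTpro 16plex LC-MS/MS with channel sums equalised. Duplicate values are given as log-two fold change in thermal stability relative to solvent controls.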

[2] = compound: C/C(=N\NC(=O)C1=CC(=CC=C1)S(=O)(=O)N2CCOCC2)/C3=C(C=CC(=C3)Cl)O
In short: as §1

[3] = compound: C1=CC(=CC=C1C2=NC3=C(N2)C=C(C=C3)C(=O)N)OC4=CC=C(C=C4)Cl
In short: as §1

[4] = compound: C1=CC2=C(C=CC(=C2)/C=C\3/C(=O)NC(=NCC4=CC=CS4)S3)N=C1
In short: as §1

[5] = compound: C1=CC2=NC=CN=C2C=C1/C=C/3\C(=O)NC(=O)S3
In short: as §1

[6] = compound: C1=CC=C(C=C1)C2=NC(=C(N2)C3=CC=NC=C3)C4=CC(=C(C=C4)Cl)O
In short: as §1

[7] = compound: C1=CC=C2C(=C1)C3=NNC4=CC=CC(=C43)C2=O
In short: as §1

[8] = compound: C1CCN(C1)C(=O)NC2=CC=CC(=C2)NC3=NC=C(C(=N3)NCCC4=CN=CN4)Br
In short: as §1

[9] = compound: C1CN(CCC1(CC2=CC=C(C=C2)Cl)N)C3=NC=NC4=C3C=CN4
In short: as §1

[10] = compound: C1COCCN1CCN2C3=CC=CC=C3N=C2NC(=O)C4=CC(=CC=C4)[N+](=O)[O-] [IRAK-1-4 Inhibitor I]
In short: as §1

[11] = compound: C=CC(=O)N1CCC[C@@H](n2nc(-c3ccc(Oc4ccccc4)cc3)c3c(N)ncnc32)C1 [ibrutinib]
In short: as §1

[12] = compound: CC(C)(C)Cn1c(N)nc2ccc(-c3[nH]c(C(C)(C)C)nc3-c3ccc(F)cc3)nc21 [ralimetinib]
In short: as §1

[13] = compound: CC(C)(O)CC(=O)NCCn1ccc2ncnc(Nc3ccc(Oc4cccc(C(F)(F)F)c4)c(Cl)c3)c21
In short: as §1

[14] = compound: CC(C)C1=C2N=C(C=C(N2N=C1)NCC3=CC=CC=C3)NCCCCCCN
In short: as §1

[15] = compound: CC1=C(C2=C(C=C1)C(=O)C3=CC=CC=C3N2CCCN)C
In short: as §1

[16] = compound: CC1=C(C=C(C=C1)NC(=O)C2=CC(=CC=C2)C(C)(C)C#N)NC3=CC4=C(C=C3)N=CN(C4=O)C
In short: as §1

[17] = compound: CC1=C(C=C(C=C1)NC(=O)C2=CC(=CC=C2)N(C)C)NC(=O)C3=CC=C(C=C3)O
In short: as §1

[18] = compound: CC1=C(C(CC(=O)N1)C2=CC=C(C=C2)C(F)(F)F)C(=O)NC3=C(C=C4C(=C3)C=NN4)F
In short: as §1

[19] = compound: CC(=O)c1cnc2ccc(-c3cc(Cl)c(O)c(Cl)c3)nc2c1N[C@H]1CC[C@H](CN(C)C)CC1
In short: as §1

[20] = compound: CC1=CC=C(C=C1)SC2=C3C=C(SC3=CN=C2)C(=O)N
In short: as §1

Measured: log2 fold change

KIZ (UniProt Q2M2Z5)
inactive: [1] 0.123 | [2] 0.06 | [3] 0.112 | [4] -0.059 | [5] 0 | [6] -0.06 | [7] -0.278 | [8] 0.024 | [9] -0.059 | [10] 0.03 | [11] -0.011 | [12] 0.027 | [13] -0.035 | [14] 0.026 | [15] 0.178 | [16] 0.012 | [17] -0.01

KIF1B isoform 3 (UniProt O60333)
inactive: [1] 0.008 | [3] 0.059 | [5] 0.006 | [6] -0.128 | [8] -0.006 | [9] 0.153 | [10] 0.215 | [11] -0.113 | [12] 0.067 | [13] 0.051 | [14] 0.081 | [18] 0.139 | [15] -0.339 | [16] 0.046 | [17] -0.147

KIF20B isoform 2 (UniProt Q96Q89)
inactive: [1] -0.079 | [2] -0.135 | [3] 0.039 | [4] 0.049 | [6] 0.062 | [7] 0.024 | [8] 0.019 | [9] 0.083 | [10] -0.028 | [12] -0.014 | [13] -0.103 | [14] -0.089 | [18] 0.049 | [15] 0.115 | [16] 0.047 | [17] 0.033

KLHL20 (UniProt Q9Y2M5)
inactive: [1] 0.028 | [3] 0.007 | [5] 0.007 | [6] -0.024 | [8] -0.178 | [9] 0.013 | [10] 0.01 | [11] -0.074 | [19] 0.083 | [12] 0.038 | [13] -0.05 | [14] 0.065 | [15] -0.021 | [16] -0.069 | [17] 0.006 | [20] 0.033
